This is an account of results in the supplement of paper PMC4299490.

± gives the standard deviation of the averaged measurements. The data scatter; read single values as rough.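 Three doses of each ligand were tested, with effects compared to wells receiving basal cytokines alone. SR1 was the positive control for HSC expansion, and TGFB1 (10 ng/ml) the negative control.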

The subject of experiment [1] is human umbilical cord blood Lin-RholowCD34+CD38-CD45RA-CD49f+ HSC-enriched cells. As to the kind of experiment: number of CD34- mature cells per well on day 7 (from 40 seeded cells); higher = more mature cell output. The conditions noted are these: culture time: 7 days, basal cytokines: 100 ng/ml SCF + 50 ng/ml THPO + 100 ng/ml FLT3LG. As for the experimental part: (§1)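 Forty human umbilical cord blood Lin-RholowCD34+CD38-CD45RA-CD49f+ HSC-enriched cells were cultured per well in serum-free medium with basal cytokines (100 ng/ml SCF, 50 ng/ml THPO, 100 ng/ml FLT3LG) plus one test ligand (recombinant protein or small-molecule inhibitor) at the stated concentration. On day 7, flow cytometry counted CD34+CD133+CD90+ HSC-enriched cells and CD34- mature cells; progenitors (CD34+ cells that are CD133- or CD90-) were calculated as total - HSC-enriched - mature. Values are absolute cell numbers per well, corrected for the 30 µl dead volume and averaged over experiments; they are not normalised to the basal-cytokine control, and they vary strongly between experiments. Concentrations are in ng/ml, except SR1, which is 0.75 µM.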

The test system is the same in experiment [2]. As to the kind of experiment: number of CD34+CD133+CD90+ HSC-enriched cells per well on day 7 (from 40 seeded cells); higher = more HSC-enriched cell output. To be noted: culture time: 7 days, basal cytokines: 100 ng/ml SCF + 50 ng/ml THPO + 100 ng/ml FLT3LG. As for the experimental part: as §1
Setting [3] is: ligand concentration (ng/ml; SR1 in µM as written): 1.
Setting [4] is: ligand concentration (ng/ml; SR1 in µM as written): 25.
Where [5] appears, read: ligand concentration (ng/ml; SR1 in µM as written): 100.
Where [6] appears, read: ligand concentration (ng/ml; SR1 in µM as written): 50.
The mark [7] stands for this setting: ligand concentration (ng/ml; SR1 in µM as written): 200.

With “MVAGTRCLLALLLPQVLLGGAAGLVPELGRRKFAAASSGRPSSQPSDEVLSEFELRLLSMFGLKQRPTPSRDAVVPPYMLDLYRRHSGQPGSPAPDHRLERAASRANTVRSFHHEESLEELPETSGKTTRRFFFNLSSIPTEEFITSAELQVFREQMQDALGNNSSFHHRINIYEIIKPATANSKFPVTRLLDTRLVNQNASRWESFDVTPAVMRWTAQGHANHGFVVEVAHLEEKQGVSKRHVRISRSLHQDEHSWSQIRPLLVTFGHDGKGHPLHKREKRQAKHKQRKRLKSSCKRHPLYVDFSDVGWNDWIVAPPGYHAFYCHGECPFPLADHLNSTNHAIVQTLVNSVNSKIPKACCVPTELSAISMLYLDENEKVVLKNYQDMVVEGCGCR”, the number worked out at 348 ± 260 in experiment [1] (setting [3]); 452 ± 390 in experiment [1] (setting [4]); 426 ± 440 in experiment [1] (setting [5]); 107 ± 57 in experiment [2] (setting [3]); 90 ± 48 in experiment [2] (setting [4]); 92.2 ± 49 in experiment [2] (setting [5]).
For the substance “MVLAAPLLLGFLLLALELRPRGEAAEGPAAAAAAAAAAAAAGVGGERSSRPAPSVAPEPDGCPVCVWRQHSRELRLESIKSQILSKLRLKEAPNISREVVKQLLPKAPPLQQILDLHDFQGDALQPEDFLEEDEYHATTETVISMAQETDPAVQTDGSPLCCHFHFSPKVMFTKVLKAQLWVYLRPVPRPATVYLQILRLKPLTGEGTAGGGGGGRRHIRIRSLKIELHSRSGHWQSIDFKQVLHSWFRQPQSNWGIEINAFDPSGTDLAVTSLGPGAEGLHPFMELRVLENTKRSRRNLGLDCDEHSSESRCCRYPLTVDFEAFGWDWIIAPKRYKANYCSGQCEYMFMQKYPHTHLVQQANPRGSAGPCCTPTKMSPINMLYFNDKQQIIYGKIPGMVVDRCGCS”, the number in experiment [1] (setting [3]) was 326 ± 240; in experiment [1] (setting [4]) it was 174 ± 110; in experiment [1] (setting [5]), 142 ± 120; in experiment [2] (setting [3]), 69.1 ± 50; in experiment [2] (setting [4]) it was 69.8 ± 49; in experiment [2] (setting [5]) it was 66.7 ± 41.
In the case of “MWQIVFFTLSCDLVLAAAYNNFRKSMDSIGKKQYQVQHGSCSYTFLLPEMDNCRSSSSPYVSNAVQRDAPLEYDDSVQRLQVLENIMENNTQWLMKLENYIQDNMKKEMVEIQQNAVQNQTAVMIEIGTNLLNQTAEQTRKLTDVEAQVLNQTTRLELQLLEHSLSTNKLEKQILDQTSEINKLQDKNSFLEKKVLAMEDKHIIQLQSIKEEKDQLQVLVSKQNSIIEELEKKIVTATVNNSVLQKQQHDLMETVNNLLTMMSTSNSAKDPTVAKEEQISFRDCAEVFKSGHTTNGIYTLTFPNSTEEIKAYCDMEAGGGGWTIIQRREDGSVDFQRTWKEYKVGFGNPSGEYWLGNEFVSQLTNQQRYVLKIHLKDWEGNEAYSLYEHFYLSSEELNYRIHLKGLTGTAGKISSISQPGNDFSTKDGDNDKCICKCSQMLTGGWWFDACGPSNLNGMYYPQRQNTNKFNGIKWYYWKGSGYSLKATTMMIRPADF”, the number worked out at 478 ± 480 in experiment [1] (setting [3]); 608 ± 420 in experiment [1] (setting [6]); 634 ± 560 in experiment [1] (setting [7]); 156 ± 32 in experiment [2] (setting [3]); 136 ± 68 in experiment [2] (setting [6]); 119 ± 47 in experiment [2] (setting [7]).
As for SPP1, the number in experiment [1] (setting [3]) stood at 273 ± 240; in experiment [1] (setting [6]), 299 ± 230; in experiment [1] (setting [7]) it was 380 ± 410; in experiment [2] (setting [3]), 137 ± 79; in experiment [2] (setting [6]) it was 126 ± 70; in experiment [2] (setting [7]), 136 ± 71.
